Laboratory results: the supplement of paper PMC10849652
Some of the results follow.

Protein sequences, listed by entry. Tags and fused reporters are not part of them. Lines headed by an entry give the natural chain unless they say otherwise; changes in a name come on top.
UniProt Q9Y232: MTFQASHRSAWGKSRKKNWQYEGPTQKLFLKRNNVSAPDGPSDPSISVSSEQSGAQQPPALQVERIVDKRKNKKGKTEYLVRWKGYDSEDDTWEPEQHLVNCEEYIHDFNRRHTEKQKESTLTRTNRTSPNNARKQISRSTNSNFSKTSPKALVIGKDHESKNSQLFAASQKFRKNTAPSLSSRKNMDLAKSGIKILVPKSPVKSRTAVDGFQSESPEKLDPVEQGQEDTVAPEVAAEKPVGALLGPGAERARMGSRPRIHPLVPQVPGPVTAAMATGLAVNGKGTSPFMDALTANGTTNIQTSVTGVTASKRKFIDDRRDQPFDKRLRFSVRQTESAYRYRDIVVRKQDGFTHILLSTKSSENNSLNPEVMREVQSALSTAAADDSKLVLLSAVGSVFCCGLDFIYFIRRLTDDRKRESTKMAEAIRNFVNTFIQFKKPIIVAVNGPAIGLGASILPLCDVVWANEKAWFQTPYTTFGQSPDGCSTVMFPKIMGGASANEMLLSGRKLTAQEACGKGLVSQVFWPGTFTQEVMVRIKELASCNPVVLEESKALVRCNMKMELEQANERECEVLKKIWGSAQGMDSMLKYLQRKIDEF
UniProt Q9Y5S2: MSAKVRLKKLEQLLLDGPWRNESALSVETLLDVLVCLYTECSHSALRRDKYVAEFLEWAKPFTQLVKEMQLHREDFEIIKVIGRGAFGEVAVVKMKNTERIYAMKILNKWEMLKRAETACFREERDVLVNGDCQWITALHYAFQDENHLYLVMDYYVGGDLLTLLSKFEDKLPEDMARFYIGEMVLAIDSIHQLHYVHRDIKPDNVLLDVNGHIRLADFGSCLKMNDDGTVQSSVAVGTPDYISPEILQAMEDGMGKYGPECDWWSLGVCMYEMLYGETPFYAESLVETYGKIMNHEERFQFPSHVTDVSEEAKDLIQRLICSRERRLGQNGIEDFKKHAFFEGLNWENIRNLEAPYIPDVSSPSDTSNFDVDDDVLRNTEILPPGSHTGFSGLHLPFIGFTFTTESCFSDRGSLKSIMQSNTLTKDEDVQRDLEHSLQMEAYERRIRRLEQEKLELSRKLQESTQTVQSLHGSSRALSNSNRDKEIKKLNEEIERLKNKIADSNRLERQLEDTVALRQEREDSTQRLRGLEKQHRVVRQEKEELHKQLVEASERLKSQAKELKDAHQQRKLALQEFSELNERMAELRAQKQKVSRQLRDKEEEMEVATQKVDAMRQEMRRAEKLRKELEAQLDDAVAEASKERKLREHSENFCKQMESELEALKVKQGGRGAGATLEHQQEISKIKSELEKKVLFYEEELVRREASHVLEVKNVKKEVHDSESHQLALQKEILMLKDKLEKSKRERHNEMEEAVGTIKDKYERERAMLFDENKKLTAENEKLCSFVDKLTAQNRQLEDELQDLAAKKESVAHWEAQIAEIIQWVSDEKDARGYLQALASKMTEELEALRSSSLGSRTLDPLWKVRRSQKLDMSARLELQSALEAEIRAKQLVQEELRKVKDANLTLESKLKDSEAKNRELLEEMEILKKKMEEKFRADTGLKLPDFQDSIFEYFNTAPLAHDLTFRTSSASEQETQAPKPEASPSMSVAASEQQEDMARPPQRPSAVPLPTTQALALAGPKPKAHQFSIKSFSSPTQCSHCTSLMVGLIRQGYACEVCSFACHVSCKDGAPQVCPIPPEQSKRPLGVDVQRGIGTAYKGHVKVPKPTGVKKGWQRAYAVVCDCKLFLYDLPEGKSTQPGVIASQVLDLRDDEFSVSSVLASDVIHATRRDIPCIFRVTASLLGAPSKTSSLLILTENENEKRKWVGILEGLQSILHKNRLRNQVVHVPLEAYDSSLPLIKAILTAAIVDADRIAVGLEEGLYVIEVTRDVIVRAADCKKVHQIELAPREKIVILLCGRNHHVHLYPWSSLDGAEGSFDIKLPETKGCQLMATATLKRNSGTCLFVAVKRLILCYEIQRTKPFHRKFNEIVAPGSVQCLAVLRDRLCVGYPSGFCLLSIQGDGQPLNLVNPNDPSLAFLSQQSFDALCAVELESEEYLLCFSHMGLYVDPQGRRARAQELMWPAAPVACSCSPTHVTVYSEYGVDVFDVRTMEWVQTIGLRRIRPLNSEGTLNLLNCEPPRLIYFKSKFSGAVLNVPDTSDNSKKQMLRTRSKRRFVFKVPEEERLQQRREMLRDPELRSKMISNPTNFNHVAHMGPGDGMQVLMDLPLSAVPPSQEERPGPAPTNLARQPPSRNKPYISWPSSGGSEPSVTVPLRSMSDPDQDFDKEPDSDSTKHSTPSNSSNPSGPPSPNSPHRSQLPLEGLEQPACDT
UniProt Q9NRR3: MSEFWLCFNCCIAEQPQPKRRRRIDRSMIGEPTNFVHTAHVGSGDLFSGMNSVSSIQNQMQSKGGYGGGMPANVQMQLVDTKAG
UniProt P60953, whole entry, looked up: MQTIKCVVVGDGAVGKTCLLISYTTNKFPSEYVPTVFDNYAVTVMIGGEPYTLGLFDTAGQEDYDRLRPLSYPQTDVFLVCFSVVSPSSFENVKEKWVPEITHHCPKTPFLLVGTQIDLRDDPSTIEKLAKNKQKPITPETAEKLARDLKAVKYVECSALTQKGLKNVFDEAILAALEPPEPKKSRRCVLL
UniProt Q53EZ4: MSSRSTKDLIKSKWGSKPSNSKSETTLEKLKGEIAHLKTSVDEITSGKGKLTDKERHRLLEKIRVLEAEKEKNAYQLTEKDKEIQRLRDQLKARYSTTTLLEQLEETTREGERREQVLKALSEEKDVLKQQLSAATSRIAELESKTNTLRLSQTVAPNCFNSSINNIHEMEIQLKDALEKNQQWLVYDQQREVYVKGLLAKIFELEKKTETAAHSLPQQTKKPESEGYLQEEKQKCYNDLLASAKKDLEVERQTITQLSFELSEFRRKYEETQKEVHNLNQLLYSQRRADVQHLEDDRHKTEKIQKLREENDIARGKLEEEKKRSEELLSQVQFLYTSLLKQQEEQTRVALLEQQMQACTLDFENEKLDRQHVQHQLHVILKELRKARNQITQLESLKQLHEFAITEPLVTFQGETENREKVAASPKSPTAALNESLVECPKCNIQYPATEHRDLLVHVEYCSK
UniProt Q9C0F1: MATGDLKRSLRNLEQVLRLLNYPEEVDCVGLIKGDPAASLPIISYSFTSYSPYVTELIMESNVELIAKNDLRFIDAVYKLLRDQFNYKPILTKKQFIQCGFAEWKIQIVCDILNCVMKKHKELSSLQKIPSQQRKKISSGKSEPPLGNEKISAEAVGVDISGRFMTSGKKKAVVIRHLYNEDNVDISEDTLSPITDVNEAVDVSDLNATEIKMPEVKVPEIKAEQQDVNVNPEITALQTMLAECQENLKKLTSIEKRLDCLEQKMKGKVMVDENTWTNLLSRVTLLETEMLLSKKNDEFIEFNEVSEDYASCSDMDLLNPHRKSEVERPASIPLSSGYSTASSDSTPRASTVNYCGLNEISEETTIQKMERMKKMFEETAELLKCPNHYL
UniProt Q9BUX1: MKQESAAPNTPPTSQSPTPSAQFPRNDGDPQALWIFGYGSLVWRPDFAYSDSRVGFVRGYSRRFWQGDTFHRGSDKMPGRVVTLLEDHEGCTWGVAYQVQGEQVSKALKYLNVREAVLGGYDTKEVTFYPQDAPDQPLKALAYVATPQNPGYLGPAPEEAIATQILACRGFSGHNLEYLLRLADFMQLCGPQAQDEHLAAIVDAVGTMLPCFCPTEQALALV
UniProt Q13042, whole entry, looked up: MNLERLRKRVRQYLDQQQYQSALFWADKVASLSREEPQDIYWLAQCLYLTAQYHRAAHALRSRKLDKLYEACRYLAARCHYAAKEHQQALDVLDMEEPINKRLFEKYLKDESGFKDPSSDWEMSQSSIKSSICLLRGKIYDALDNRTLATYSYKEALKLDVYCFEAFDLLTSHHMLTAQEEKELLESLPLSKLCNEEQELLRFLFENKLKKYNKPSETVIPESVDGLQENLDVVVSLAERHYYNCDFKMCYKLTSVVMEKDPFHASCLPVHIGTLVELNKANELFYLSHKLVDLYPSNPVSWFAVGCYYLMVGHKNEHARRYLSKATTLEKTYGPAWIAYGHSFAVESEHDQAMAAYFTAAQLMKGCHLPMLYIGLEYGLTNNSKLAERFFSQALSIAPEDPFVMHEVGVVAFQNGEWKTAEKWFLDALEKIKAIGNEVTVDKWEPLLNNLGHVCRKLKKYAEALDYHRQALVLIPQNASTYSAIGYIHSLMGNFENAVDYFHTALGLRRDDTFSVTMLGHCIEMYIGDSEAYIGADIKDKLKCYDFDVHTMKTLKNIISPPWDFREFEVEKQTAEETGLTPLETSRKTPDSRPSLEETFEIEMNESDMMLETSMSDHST
UniProt Q9UPV0, whole entry, looked up: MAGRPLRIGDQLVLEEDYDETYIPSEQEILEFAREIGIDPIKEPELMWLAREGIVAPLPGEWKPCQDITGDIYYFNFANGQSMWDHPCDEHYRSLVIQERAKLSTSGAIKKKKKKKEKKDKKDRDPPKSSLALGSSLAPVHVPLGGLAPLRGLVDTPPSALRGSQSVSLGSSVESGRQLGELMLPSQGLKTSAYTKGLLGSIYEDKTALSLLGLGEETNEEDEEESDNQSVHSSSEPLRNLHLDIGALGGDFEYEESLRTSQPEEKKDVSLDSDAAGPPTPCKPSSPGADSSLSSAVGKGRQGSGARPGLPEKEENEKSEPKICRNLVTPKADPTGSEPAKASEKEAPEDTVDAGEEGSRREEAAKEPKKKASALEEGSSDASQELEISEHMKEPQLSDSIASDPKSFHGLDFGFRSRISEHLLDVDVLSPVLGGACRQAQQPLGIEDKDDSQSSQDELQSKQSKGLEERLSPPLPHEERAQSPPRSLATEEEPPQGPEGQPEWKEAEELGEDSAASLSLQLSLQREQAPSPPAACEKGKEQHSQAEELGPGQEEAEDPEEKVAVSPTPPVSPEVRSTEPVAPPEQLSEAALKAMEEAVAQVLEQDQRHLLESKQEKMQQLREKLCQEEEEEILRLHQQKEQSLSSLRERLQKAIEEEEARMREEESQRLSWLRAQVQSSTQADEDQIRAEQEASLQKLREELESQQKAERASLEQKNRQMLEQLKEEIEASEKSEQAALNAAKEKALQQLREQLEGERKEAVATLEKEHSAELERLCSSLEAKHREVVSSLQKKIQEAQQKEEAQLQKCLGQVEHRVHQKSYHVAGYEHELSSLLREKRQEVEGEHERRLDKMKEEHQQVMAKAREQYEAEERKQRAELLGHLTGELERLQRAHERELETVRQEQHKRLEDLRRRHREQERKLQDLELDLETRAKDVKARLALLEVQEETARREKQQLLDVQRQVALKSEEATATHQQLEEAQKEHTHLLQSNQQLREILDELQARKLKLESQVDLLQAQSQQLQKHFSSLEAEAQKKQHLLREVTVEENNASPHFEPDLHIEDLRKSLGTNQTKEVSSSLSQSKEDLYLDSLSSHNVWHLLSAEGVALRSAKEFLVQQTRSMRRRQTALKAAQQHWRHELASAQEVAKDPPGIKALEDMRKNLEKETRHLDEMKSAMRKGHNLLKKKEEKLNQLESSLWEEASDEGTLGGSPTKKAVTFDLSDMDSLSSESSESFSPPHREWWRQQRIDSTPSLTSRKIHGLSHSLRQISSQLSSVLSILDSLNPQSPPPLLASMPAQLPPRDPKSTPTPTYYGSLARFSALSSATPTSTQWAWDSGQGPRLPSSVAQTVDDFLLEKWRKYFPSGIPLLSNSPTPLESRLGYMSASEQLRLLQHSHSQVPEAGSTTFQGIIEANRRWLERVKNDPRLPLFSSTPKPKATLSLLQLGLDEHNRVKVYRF
UniProt Q92879: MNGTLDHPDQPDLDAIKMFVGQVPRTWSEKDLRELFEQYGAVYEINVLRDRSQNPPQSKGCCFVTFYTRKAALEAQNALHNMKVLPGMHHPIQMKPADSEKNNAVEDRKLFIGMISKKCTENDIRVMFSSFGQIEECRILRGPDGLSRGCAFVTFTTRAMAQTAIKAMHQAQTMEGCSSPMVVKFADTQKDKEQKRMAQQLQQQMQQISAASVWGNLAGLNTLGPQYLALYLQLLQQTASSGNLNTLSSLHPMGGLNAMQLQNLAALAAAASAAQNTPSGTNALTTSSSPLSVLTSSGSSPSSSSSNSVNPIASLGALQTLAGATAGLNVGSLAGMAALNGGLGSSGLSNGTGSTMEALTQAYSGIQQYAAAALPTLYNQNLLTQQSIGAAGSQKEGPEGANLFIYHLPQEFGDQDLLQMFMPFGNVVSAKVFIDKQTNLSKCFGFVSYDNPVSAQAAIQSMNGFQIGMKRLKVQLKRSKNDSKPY

Experiments:
Assay in all cases: log2 fold change, soluble protein after heating vs DMSO (PISA); higher = thermal stabilisation; K562 lysate, 10 uM; active = over 0.2 and 3.5 SD of the protein, either way, in both replicates (recomputed)
[1] = compound: C1=CC=C(C=C1)[C@H](COC2=CC3=C(C=C2)NC(=O)N3)NC(=O)C4=CC=CN(C4=O)CC5=CC(=C(C=C5)F)F
How it was run: (§1)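 Log-two fold change in thermal stability relative to solvent controls is reported from duplicates. For each sample, crude K562 extract from dounce-homogenised pellets in PBS pH 7.4 with 1 mM MgCl2, at 1 mg/mL protein, was treated with 10 μM compound for 30 min. Aliquots heated for 3 min across 48°C-58°C were pooled, brought to 0.5% NP-40 at 4°C and cleared at 21,000xg for 90 min. The supernatant was quantified by TMTpro 16plex LC-MS/MS with channel sums equalised.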

[2] = compound: CC1=C(SC2=C1C(=N[C@H](C3=NN=C(N32)C)CC(=O)N)C4=CC=C(C=C4)Cl)C
How it was run: as §1

[3] = compound: CC1=C2C(=CC=C1)N=C(N(C2=O)C3=CC=CC=C3C)CN4C=NC5=C(N=CN=C54)N
How it was run: as §1

[4] = compound: Cc1sc2c(c1C)C(c1ccc(Cl)cc1)=N[C@@H](CC(=O)OC(C)(C)C)c1nnc(C)n1-2
How it was run: as §1

[5] = compound: c1ccc([C@@H]2C[C@H]2NC2CCNCC2)cc1
How it was run: as §1

Measured: log2 fold change

CDYL (UniProt Q9Y232)
inactive: [1] 0.051 | [2] 0.005 | [3] -0.03 | [4] 0.023 | [5] -0.059

CDC42BPB (UniProt Q9Y5S2)
inactive: [1] 0.009 | [2] 0 | [3] 0.04 | [4] -0.074 | [5] 0.169

CDC42SE2 (UniProt Q9NRR3)
inactive: [1] 0.033 | [2] -0.02 | [3] 0.078 | [4] -0.077 | [5] -0.035

CDC42 isoform 1 (UniProt P60953)
inactive: [1] 0.025 | [2] 0.018 | [3] -0.036 | [4] -0.017 | [5] -0.201

CEP55 (UniProt Q53EZ4)
inactive: [1] 0.059 | [2] 0.058 | [3] 0.022 | [4] -0.062 | [5] 0.033

CEP44 (UniProt Q9C0F1)
inactive: [1] 0.014 | [2] -0.04 | [3] -0.069 | [4] 0.019 | [5] 0.019

CHAC1 (UniProt Q9BUX1)
inactive: [1] -0.14 | [2] 0.362 | [3] -0.083 | [4] -0.137

CDC16 (UniProt Q13042)
inactive: [1] -0.038 | [2] 0.027 | [3] 0.025 | [4] 0.03 | [5] 0.021

CEP164 (UniProt Q9UPV0)
inactive: [1] -0.118 | [2] 0.148

CELF1 isoform 4 (UniProt Q92879)
inactive: [1] 0.04 | [2] -0.005 | [3] 0.07 | [4] 0.044 | [5] 0.144
